PubChem BioAssay AID1508588 – Peter MacCallum Cancer Centre | 2020
Here is a random part of about 18,000 deposited reagents. 790 of them (4.4%) were called active. 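Calls rest on a combination of fold-change classes in drug and vehicle arms, not all shown here.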 A number with no mark means an inactive call.

Aim: 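Which gene losses make BRAF-mutant melanoma cells more responsive to vemurafenib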 (primary screen)
Cells: human WM266.4 melanoma cells (BRAF V600 mutant)
Knock-down reagent: siRNA pool against human genes, 40 nM
Timing: 96 h from transfection to read-out
Treatment: vemurafenib 300 nM (about IC25), added 48 h after transfection, for 48 h; comparison arm got DMSO vehicle only
Read-out: 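Ratios to non-targeting siRNA for cell gain, counted as DAPI nuclei after minus before drug and averaged over two replicates, and for absorbance-read medium lactate per cell; both binned into fold-change classes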
Direction: cell gain with vemurafenib: higher = more cell gain than with non-targeting siRNA; lactate per cell with vemurafenib: higher = more lactate made per cell
Hit rule: 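a knock-down counts as enhancing when its fold-change classes with vehicle and with vemurafenib, taken together, show a stronger drug effect on cell gain or lactate per cell; exact class pairs not stated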
Calls: active = enhances vemurafenib effect; inactive = no enhancement seen

| target | cell gain with vemurafenib | lactate per cell with vemurafenib |
| --- | --- | --- |
| DIRAS2 (GeneID 54769) | 0.75 | 0.84 |
| DLL1 (GeneID 28514) | 0.21 | 1.3 |
| FAM156A (GeneID 29057) | 0.29 (active) | 0.12 |
| MLANA (GeneID 2315) | 0.9 (active) | 0.48 |
| CEP57L1 (GeneID 285753) | 0.37 | 0.54 |
| VKORC1L1 (GeneID 154807) | 0.11 | 0.8 |
| MED30 (GeneID 90390) | 0.55 | 0.64 |
| HLA-DOA (GeneID 3111) | 0.54 | 1.23 |
| SMYD3 (GeneID 64754) | 0.43 | 0.6 |
| LIX1L (GeneID 128077) | 0.99 | 1.21 |
| GRAMD1B (GeneID 57476) | 0.96 | 1.41 |
| CRACDL (GeneID 343990) | 0.97 | 0.64 |
| UFD1 (GeneID 7353) | 0.48 | 1.17 |
| CCDC87 (GeneID 55231) | 0.66 | 0.67 |
| ZNF354A (GeneID 6940) | 0.79 | 0.51 |
| DYNLT2B (GeneID 255758) | 0.56 | 0.38 |
| CNGA2 (GeneID 1260) | 0.53 | 1.09 |
| UNC45B (GeneID 146862) | 0.19 (active) | 0.88 |
| TMCC1 (GeneID 23023) | 0.58 | 0.94 |
| MAGOH (GeneID 4116) | 0.71 | 0.54 |
| TMEM59 (GeneID 9528) | 0.7 | 1.12 |
| MOB4 (GeneID 25843) | 0.62 | 1.71 |

Reprinted from the listing for reference:
| target | cell gain with vemurafenib | lactate per cell with vemurafenib |
| --- | --- | --- |
| UNC45B (GeneID 146862) | 0.19 (active) | 0.88 |
| TMCC1 (GeneID 23023) | 0.58 | 0.94 |
| MAGOH (GeneID 4116) | 0.71 | 0.54 |
| TMEM59 (GeneID 9528) | 0.7 | 1.12 |

The listing continues:
| target | cell gain with vemurafenib | lactate per cell with vemurafenib |
| --- | --- | --- |
| CTSG (GeneID 1511) | 0.73 | 0.69 |
| PODXL (GeneID 5420) | 0.82 | 0.56 |
| SPATS1 (GeneID 221409) | 0.54 | 1.12 |
| PLXNA1 (GeneID 5361) | 0.94 | 1.16 |
| MARCHF10 (GeneID 162333) | 0.98 | 0.68 |
| TIGIT (GeneID 201633) | 0.99 | 0.54 |
| SLC22A5 (GeneID 6584) | 0.49 | 1.99 |
| SLC5A8 (GeneID 160728) | 0.93 | 0.78 |
| TULP1 (GeneID 7287) | 0.81 | 0.94 |
| WDR81 (GeneID 124997) | 0.5 | 1.11 |
| NUDT10 (GeneID 170685) | 0.23 | 0.7 |
| PRLHR (GeneID 2834) | 0.86 | 0.56 |
